The text below walks through data of paper doi:10.1101/032243.

No constants are given. Whether binding was seen depends on the method and setting. Binding seen in cells or lysates may run through a third protein. Binding can be weak; no strength is given. Sequences can lack the tags named with a protein.

The target in this assay is Flag-tagged DISC1 MD domain (mouse). The experiment in a line: co-IP.

B1: full-length HA-tagged RASSF7 (protein, UniProt Q9DD19 1-359)
chain: MVLELVAMELKVWVDGIQRVVCGVSEQTTCQEVVIALAQAIGQTGRFVLVQRLREKERQLLPQECPVGAQATCGQFANDVQFVLRRTGPSLSGRPSSDNCPPPERCPVRASLPPKPSAIPGREPRKALTFNLRCPKLVPSPSIPEPAALVGPIPDGFADLQDLELRIQRNTEELGHEAFWEQELQREQAREREGQARLQALSAATAEHAARLEALDAQACALEAELRLAAEAPGPPSATASAAERLRQDLATQERHSLEMQGTLALVSQALEAAEHALQAQAQELEELNRELRQCNLQQFIQQTGAALPPPPPQLDRTIPSTQDLLSPNRGELQGVPQSHILVSSLSPEVPPMRQSSWR
As to B1, the binding entry is given as “binds”.
